PubChem BioAssay AID1508597 | Cure First, 2020
This is a random part of the about 2,100 reagents, in one setting of the screen. 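Calls flag viability under 80% in either arm, not effects specific to rucaparib; the reference for percent is not stated.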 A reagent listed more than once was tested more than once; the source does not tell the runs apart. Not stated in the record: the 100% reference.

- Screen: 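Survival screen with siRNA in ovarian cancer cells derived from patients, with or without rucaparib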 (primary screen)
- Cells: human ovarian carcinoma lines grown from tumours: OCI-P5x (papillary serous) and OCI-C5x (clear cell)
- Reagents: siRNA pool against human genes, 1.25 pmol siRNA per well
- Timing: 72 h or 96 h, depending on the cell culture
- Conditions: rucaparib 20 µM (about IC30) or vehicle, present until read-out
- Rucaparib or vehicle: Rucaparib
- Cell line: OCI-C5x (clear cell)
- Read-out: 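ATP luminescence measured at 72 or 96 h according to the culture, then normalised and expressed as percent viability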
- Direction: viability, normalised: higher = more viable cells remaining
- Rule for the call: 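Active when normalised viability falls below 80 percent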
- Calls: active = viability under 80%; inactive = viability 80% or more

| target | technical replicate | viability, normalised (%) | activity call |
| --- | --- | --- | --- |
| CSNK1E | 1 | 57.8 | active |
| CSNK1E | 1 | 59.1 | active |
| CSNK1E | 1 | 71 | active |
| CSNK1E | 2 | 65 | active |
| CSNK1E | 2 | 50.9 | active |
| CSNK1E | 2 | 34.6 | active |
| CSNK1E | 3 | 51.8 | active |
| CSNK1E | 3 | 57.8 | active |
| CSNK1E | 3 | 61.5 | active |
| CBX1 | 1 | 66.1 | active |
| CBX1 | 2 | 52.2 | active |
| CBX1 | 3 | 54.7 | active |
| APBB1 | 1 | 43.5 | active |
| APBB1 | 2 | 27.4 | active |
| APBB1 | 3 | 30.4 | active |
| POLN | 1 | 43.8 | active |
| POLN | 2 | 66.4 | active |
| POLN | 3 | 55.3 | active |
| SBNO1 | 1 | 47.6 | active |
| SBNO1 | 2 | 41.6 | active |
| SBNO1 | 3 | 47.9 | active |
| ATP5F1D | 1 | 67.5 | active |
| ATP5F1D | 2 | 67.2 | active |
| ATP5F1D | 3 | 73.6 | active |
| SULT1A2 | 1 | 55.8 | active |
| SULT1A2 | 2 | 49.8 | active |
| SULT1A2 | 3 | 51.9 | active |
| NBN | 1 | 45.3 | active |
| NBN | 1 | 45.6 | active |
| NBN | 2 | 55.3 | active |
| NBN | 2 | 58.1 | active |
| NBN | 3 | 49.3 | active |
| NBN | 3 | 54.9 | active |
| DTX3L | 1 | 63.1 | active |
| DTX3L | 2 | 42 | active |
| DTX3L | 3 | 59.6 | active |
| PLK3 | 1 | 75.9 | active |
| PLK3 | 2 | 77.5 | active |
| PLK3 | 3 | 51.5 | active |
| DDX24 | 1 | 52 | active |
| DDX24 | 2 | 39.1 | active |
| DDX24 | 3 | 44.6 | active |
| PSIP1 | 1 | 30.2 | active |
| PSIP1 | 2 | 32.3 | active |
| PSIP1 | 3 | 31.9 | active |
| TIE1 | 1 | 52.3 | active |
| TIE1 | 1 | 38.5 | active |
| TIE1 | 2 | 44.3 | active |
| TIE1 | 2 | 55.5 | active |
| TIE1 | 3 | 47.4 | active |
| TIE1 | 3 | 62.4 | active |
| GRK1 | 1 | 36.3 | active |
| GRK1 | 1 | 64.3 | active |
| GRK1 | 1 | 59.6 | active |
| GRK1 | 2 | 44.7 | active |
| GRK1 | 2 | 68.8 | active |
| GRK1 | 2 | 35.3 | active |
| GRK1 | 3 | 69.7 | active |
| GRK1 | 3 | 64.8 | active |
| GRK1 | 3 | 29.6 | active |
| VPS72 | 1 | 47.5 | active |
| VPS72 | 2 | 51.6 | active |
| VPS72 | 3 | 50.5 | active |
| FBXO5 | 1 | 55.3 | active |
| FBXO5 | 2 | 69.8 | active |
| FBXO5 | 3 | 52.3 | active |
| INSR | 1 | 50.4 | active |
| INSR | 2 | 70.5 | active |
| INSR | 3 | 50.3 | active |
| TNF | 1 | 26.4 | active |
| TNF | 2 | 34.5 | active |
| TNF | 3 | 28.9 | active |
| ACTL6A | 1 | 45 | active |
| ACTL6A | 2 | 49.1 | active |
| ACTL6A | 3 | 53.4 | active |

Part of the list above, reformatted.
target	technical replicate	viability, normalised (%)	activity call
APBB1	2	27.4	active
APBB1	3	30.4	active
POLN	1	43.8	active
POLN	2	66.4	active
POLN	3	55.3	active
SBNO1	1	47.6	active
SBNO1	2	41.6	active
SBNO1	3	47.9	active
